Source: PubChem BioAssay AID1508600 (Functional Genomics Laboratory (NCATS/FGL), 2020)
Hit rate of the full screen: of about 53,000 sequences, about 3,700 (7%) were called active.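 The calls were made as follows: active = gene knockdowns whose robust z-score for IL-1 alpha signal is at least 2 or at most -2, so actives lie on both sides; inactive = the rest.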 This is one part of the list.

Experiment: Components of the Cytosolic LPS Sensing Pathway: Gene Identification via Genome-wide siRNA Screen;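 also: robust z of the log signal after scaling to non-targeting control siRNA wells of the plate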
Settings: RAW264.7 macrophages, IL-1a HTRF, actives lie on both sides, screened at 100 nM (by protocol), cells primed 5 h with Pam3CSK4 first
In short: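 IL-1a HTRF of supernatants after 24 hour LipidA transfection of Pam3CSK4-primed (5 hours) RAW264.7 cells, 48h post-siRNA transfection (100 nM). Scores: percent of plate negative-control median, then log-based robust z-score.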
In the case of GGAAGUUAGCUCCUAAAUATT against Pirt, the z-score is reported as inactive: -0.383. For CCCAAUACCAAGUUAUUCCTT against Ms4a8a, the z-score was inactive: 0.52. For “GCGAAAUGGACAGAUGUGATT against 2610001J05Rik”, the z-score was inactive: -1.94. With “GGACAUCAGUGUGUACAUUTT against 1700010I14Rik” the z-score was inactive: 0.443. With CGUGGUCAAUAAUGUAAUATT against Stard4 the z-score was inactive: 0.535. With CGCAUGAUAACUAGAGAAUTT against Slitrk3 the z-score was inactive: -0.269. For GCAUUUCACCGUCAUGAACTT against Ttll12, the z-score was active: -2.55. With GAGAGCAGAGCUUGAGACATT against Angptl6 the z-score was inactive: -0.561. With CCAUGUUAAUCCUGACAGCTT against Jade3 the z-score was inactive: -0.352. In the case of GGGACCUCAAAGUUGUCUATT against Ap1s1, the z-score is reported as inactive: -0.841. With GCAGUGUUUUACGACUUGATT against Wscd1 the z-score was inactive: -0.355. In the case of GGAGCAAGACAUAUAGAAATT against Spsb2, the z-score is reported as active: 2.26. For CCCAAACCUGACCUAUGCATT against Pgm5, the z-score was inactive: -0.386. With GGAGGAAAGAAGAAAUAUCTT against Parvg the z-score was inactive: 1.07. In the case of GGAAAAAGUGAAAACCUUGTT against Jun, the z-score is reported as inactive: 0.389. In the case of GGAAGUACAGUGGUCUCUGTT against Slc22a15, the z-score is reported as inactive: -1.52. In the case of GGAGGAUGCCAAAGAGAACTT against Zfp750, the z-score is reported as inactive: 0.469. For CGUUGGUAUUUCCUUUGUATT against Slfn4, the z-score was inactive: -0.227. In the case of GGAAUGUUACAUUUCAGUUTT against Adam1a, the z-score is reported as active: 2.15. For GGUUCUGGCUCCUUGGACUTT against Oscar, the z-score was inactive: 1.28. With GCACGAGAGUCUGAAGGAUTT against Mns1 the z-score was inactive: -0.2. With GGUUUUUUUUCCUUUCCCUTT against Frs3 the z-score was inactive: 0.387. For GCAAUCCUCUUCACCCUCUTT against Olfr1495, the z-score was inactive: 0.508. For GUAUUGGAUACGAAGCAGATT against Defb2, the z-score was inactive: -0.154. With GCAGAUCAUUAAGAUCCGATT against Ruvbl1 the z-score was inactive: 0.764. In the case of GUCCUCGUAGGAACAGCAUTT against Olfr1265, the z-score is reported as inactive: -1.52. In the case of GGGUUACCAGUUUGAGGAGTT against Pex5, the z-score is reported as inactive: -0.374. In the case of GGAGACGAUCCAAGAAGAATT against Mapk1ip1, the z-score is reported as inactive: -0.546. With GGAAGUAUGUGGAUAAAUUTT against Usp5 the z-score was inactive: -0.567. For GCUGGAUUCUCAAAGGGAATT against Agmo, the z-score was inactive: -0.0877. For GGAUAUAAAGGGAGCUUUUTT against Olfr397, the z-score was inactive: 1.18. With GGAGCUGGCAGACAUCACUTT against Ube2e1 the z-score was inactive: -0.442. In the case of CGGACAAAUUGGAUGGUUUTT against Nck1, the z-score is reported as inactive: 0.966. For GCUUCUUCUGUGAACUUCCTT against Olfr854, the z-score was inactive: -0.939. With “GACAAGUUCUCAAGUAUCCTT against 1110006O24Rik” the z-score was active: -2.02. In the case of GCCACCUACUACGACAACATT against Hoxb3, the z-score is reported as inactive: 0.633. For GGUGGAUAAUGUUUAAACATT against Vmn1r78, the z-score was inactive: 0.333. In the case of CGGCUUAGUGUAAUUUGCCTT against Diras2, the z-score is reported as inactive: -0.146. For “GAAAUGCAAGACUCUGCACTT against 1700020L24Rik”, the z-score was active: -2.66. In the case of GGCUUCAAUCCUGACGAGATT against Elfn2, the z-score is reported as inactive: 0.72. In the case of CCCAGCCGUAACUUAUGAGTT against Pga5, the z-score is reported as inactive: -0.468. In the case of GGAACUUGAAAGAGAUUCUTT against Usp28, the z-score is reported as inactive: -0.729. In the case of GGACAGUGACCAAUUAUUUTT against Tacr1, the z-score is reported as inactive: -0.468. With CGCAACCAGUUUGUUCCUGTT against Ugt1a6b the z-score was inactive: -1.01. For GGUGAAUGCAGAGCUUUCATT against Aplf, the z-score was inactive: -1.12. With CGAUGGUGAUUAUCUAAAATT against Tm4sf4 the z-score was inactive: -0.0694. For GGAACUUACAAGUAUCAGATT against Bhlhe22, the z-score was inactive: -0.436. In the case of CCUUUCAUCACAAAGAAUGTT against Sppl2a, the z-score is reported as inactive: -0.0436. For GGGUCUCUAUGGAAUCAAUTT against Ldha, the z-score was active: 2.83. With GGAAUUUAAGGAAGCUGCUTT against Homer1 the z-score was inactive: -0.698. In the case of CCCUCUACAAUAUUCUCUATT against Olfr1118, the z-score is reported as inactive: -0.759. With CCCAGGAUUCUACUAGAUUTT against Pdzd7 the z-score was inactive: 0.754. With CGCAGACAACAAAGUAGAATT against Sars the z-score was inactive: 0.738. In the case of GGCAGGUUUUUGAACUGGUTT against Olfr725, the z-score is reported as active: 2.28. In the case of GGACCGCGUUCAAGAAGAATT against Cyp2c37, the z-score is reported as active: 2.17. With CCCUAGAGGCAGAUGCAAATT against Gm5478 the z-score was inactive: 0.246. For CCUUGUUCCCACUUUUGUATT against Cirbp, the z-score was inactive: 1.26. With “GGAUUCUCCUUUACCUUUGTT against B930095G15Rik” the z-score was inactive: 0.0151. In the case of GUCCACGAAACUAAAACUGTT against Prl3d1, the z-score is reported as inactive: -0.357. For GGAAAUCCGAAAUGAGCUGTT against Ssh1, the z-score was inactive: 1.87. With “GGGAGUAGACAGUUAGAAGTT against 2900092C05Rik” the z-score was inactive: 0.852. In the case of GGUCCUACAGGGAAUACCGTT against Habp4, the z-score is reported as inactive: -0.0289. In the case of GCGGAAUCAUCAGAAACAATT against Acsl6, the z-score is reported as inactive: -0.857. For GGUCAAAUAAAGCUGUGGUTT against Uba52, the z-score was inactive: -0.562. For CCAGAUUAAGUUUAUAGCCTT against Uros, the z-score was inactive: -0.147. With GGGUAAUGACAUUAGCAGUTT against Pebp1 the z-score was inactive: -1.31. For GCAUUUAUCACAUGGACAUTT against Tle4, the z-score was inactive: 1.11. For GGAACAAGAGAAGAUCCUCTT against Cd209b, the z-score was inactive: 1.01. With GCACUGCUGGCUAUUGGAATT against Golt1b the z-score was inactive: -0.494. For GGACAACCAGAAAUGUAUGTT against Grid1, the z-score was inactive: -1.65. In the case of UGAUUUCAACAAGUGGCAUTT against Olfr730, the z-score is reported as inactive: -0.686. In the case of GGAUUUUGGCCUUUCCAUUTT against Ly86, the z-score is reported as inactive: 0.375. In the case of GGAAAAGAUACGGAAGAUUTT against Acpp, the z-score is reported as inactive: 0.485. In the case of GGCUACGCUGACUAUGUCUTT against Creg1, the z-score is reported as inactive: -0.77. In the case of CCUGAGACUAGACAGAUGGTT against Hmga1, the z-score is reported as inactive: 0.61. For GGCGAGUUCAGGAGUUUACTT against Fmnl1, the z-score was active: 2.55. In the case of GGACACACAAGAGAAGAUCTT against Thop1, the z-score is reported as inactive: -0.408. In the case of GGAUGUCCUUGACUUUAAATT against Atp6v0a4, the z-score is reported as inactive: 0.704. With CCAAUGAAGAUCCUUCCACTT against Gabra3 the z-score was inactive: 1.61. For CGUUGAUGUGUAUUUAAACTT against Vopp1, the z-score was inactive: 0.704. In the case of GCACAUGCAUGGCUCUAAGTT against Hinfp, the z-score is reported as inactive: 0.779. For GCGAGUAUUCAGAUCAUACTT against Wsb2, the z-score was inactive: -1.46. For GGAAAUUUUUGGUGAAAGGTT against Dnajb7, the z-score was inactive: 0.551. For GCCCAGUCUUCUGAUGAACTT against Rpain, the z-score was inactive: -0.901. In the case of CCUGACUCCUACUCAAUUATT against Hcrtr1, the z-score is reported as inactive: -0.701. With GGAUACGAAAACGACUGCATT against Pdpr the z-score was active: 2.05. In the case of CGAUCCAGACUUUGUCCCUTT against Dzip1l, the z-score is reported as inactive: -0.186. In the case of CCACUGAAGACGUGAAGCUTT against Cenps, the z-score is reported as inactive: -1.09. In the case of GGAUGUGAAGGAUGGGAAGTT against Rps18, the z-score is reported as inactive: 1.11. For GGCGCAUCCAAACUUUGAUTT against Kcnq3, the z-score was inactive: -0.72. With GGUGUCAAUCAUGUUGUCATT against Susd2 the z-score was inactive: -1.69. In the case of GGAAGAAAUGAUGAAUGACTT against Chmp2a, the z-score is reported as active: 2.36. For GGUCAUCCUGGACAAUCUCTT against Syt6, the z-score was inactive: -1.07. In the case of GGAAAGAGAGAAGAAAUAGTT against Lmo2, the z-score is reported as inactive: 0.438. With GCUUAGAGCUUCAUAUAGCTT against Tlr12 the z-score was inactive: -0.367. With GCUCCUCUCAGGUGUACGATT against B9d2 the z-score was active: 2.23. With GGAUUCAAGGAAGGCCUUCTT against Myl7 the z-score was inactive: -0.146. For GGCUCUUUGAAGUACUACATT against Ercc1, the z-score was inactive: 1.12. In the case of GCCCAAAAAGGAGGGUAGUTT against Aebp1, the z-score is reported as inactive: -0.121. For CCAGUGGUCUGAAUCAGAUTT against Fbxw11, the z-score was inactive: -1.51. For GCAUGGGAUUGGUUCAUGATT against Nmi, the z-score was inactive: -0.324. In the case of GGAAUCAGCAAACUCAACCTT against Rnase11, the z-score is reported as inactive: -0.748. With GGUUCCUUAAACAUUCAGATT against Tspan31 the z-score was active: 2.28. For GGUAUUGUUUGGUGACAAATT against Lipk, the z-score was inactive: -1.82. For CGUUUGUUGAAAGAAGAAGTT against Cisd1, the z-score was inactive: 0.0701. For CCGAAAACAAUAACUCCUCTT against Six1, the z-score was inactive: 0.367. For GGCACAAUGGACUCAGUCATT against Tubb2b, the z-score was inactive: -0.91.
